These are yes or no findings as the source states them, for the method shown. For some assays here: Binding seen in cells or lysates may run through a third protein. Some results given as binding are weak or reduced against the parent protein; the word gives no strength. For some assays here: Where a sequence is shown, tags or fusion partners need not be part of it. One block for each molecule: values may come before it.
Columns and labels:
[1] = target: AtVPS26B (split firefly-luciferase fusions AtVPS26B-nLUC and cLUC-AtVPS26B) (Arabidopsis) (UniProt Q9T091); assay: split reporter
[2] = target: T1, AtRGS1-nLUC (Arabidopsis thaliana) (UniProt Q8H1F2); assay: split reporter
T1 sequence: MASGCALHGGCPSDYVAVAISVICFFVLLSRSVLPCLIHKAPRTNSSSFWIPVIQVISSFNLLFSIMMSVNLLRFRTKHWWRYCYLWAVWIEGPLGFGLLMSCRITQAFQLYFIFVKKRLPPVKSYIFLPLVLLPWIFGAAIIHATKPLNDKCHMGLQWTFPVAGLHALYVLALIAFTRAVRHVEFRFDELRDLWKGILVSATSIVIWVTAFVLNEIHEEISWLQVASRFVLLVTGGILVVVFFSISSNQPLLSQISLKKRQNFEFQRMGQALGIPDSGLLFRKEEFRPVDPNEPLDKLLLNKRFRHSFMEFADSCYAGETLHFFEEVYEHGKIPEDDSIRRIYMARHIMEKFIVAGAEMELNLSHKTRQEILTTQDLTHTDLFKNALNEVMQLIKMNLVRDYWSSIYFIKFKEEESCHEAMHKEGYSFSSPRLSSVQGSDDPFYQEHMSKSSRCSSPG

Protein sequences, listed by entry. Tags and fused reporters are not part of them.
UniProt Q9FJD0: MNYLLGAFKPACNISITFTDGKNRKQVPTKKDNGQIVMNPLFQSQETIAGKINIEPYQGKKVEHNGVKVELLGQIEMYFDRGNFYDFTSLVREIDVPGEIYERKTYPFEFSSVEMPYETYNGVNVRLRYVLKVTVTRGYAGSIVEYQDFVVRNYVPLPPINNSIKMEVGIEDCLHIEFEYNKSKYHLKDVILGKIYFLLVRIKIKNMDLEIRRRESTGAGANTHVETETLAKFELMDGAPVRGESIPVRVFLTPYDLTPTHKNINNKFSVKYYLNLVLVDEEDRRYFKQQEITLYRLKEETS

[3] = target: AtVPS26A (split firefly-luciferase fusions AtVPS26A-nLUC and cLUC-AtVPS26A) (Arabidopsis) (UniProt Q9FJD0); assay: split reporter
[4] = target: VPS26B, BiFC fusion (VPS26B-cYFP) (Arabidopsis) (UniProt Q9T091); assay: split reporter
[5] = target: T2, AtRGS1-nYFP (Arabidopsis thaliana) (UniProt Q8H1F2); assay: split reporter
T2 sequence: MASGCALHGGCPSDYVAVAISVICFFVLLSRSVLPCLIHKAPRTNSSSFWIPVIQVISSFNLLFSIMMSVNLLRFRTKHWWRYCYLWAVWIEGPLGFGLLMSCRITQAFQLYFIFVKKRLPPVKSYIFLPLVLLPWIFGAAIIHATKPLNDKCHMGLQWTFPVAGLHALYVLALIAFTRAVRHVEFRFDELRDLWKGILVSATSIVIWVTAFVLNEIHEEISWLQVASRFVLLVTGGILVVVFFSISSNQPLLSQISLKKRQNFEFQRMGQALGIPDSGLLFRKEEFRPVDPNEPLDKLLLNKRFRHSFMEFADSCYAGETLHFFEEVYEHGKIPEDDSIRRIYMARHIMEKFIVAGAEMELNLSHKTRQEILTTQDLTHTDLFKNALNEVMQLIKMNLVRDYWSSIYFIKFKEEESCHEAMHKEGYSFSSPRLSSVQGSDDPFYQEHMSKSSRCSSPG

[6] = target: T3, RGS-ΔCtS405,406A (Arabidopsis thaliana) (UniProt Q8H1F2); assay: two-hybrid
T3 sequence: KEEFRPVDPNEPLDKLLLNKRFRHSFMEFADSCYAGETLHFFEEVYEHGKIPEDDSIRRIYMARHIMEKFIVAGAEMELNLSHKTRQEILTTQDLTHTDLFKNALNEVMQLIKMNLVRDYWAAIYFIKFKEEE

[7] = target: T4, pAS–RGS-J5 (AtRGS1 amino acids 284–459) (Arabidopsis thaliana) (UniProt Q8H1F2); assay: two-hybrid
T4 sequence: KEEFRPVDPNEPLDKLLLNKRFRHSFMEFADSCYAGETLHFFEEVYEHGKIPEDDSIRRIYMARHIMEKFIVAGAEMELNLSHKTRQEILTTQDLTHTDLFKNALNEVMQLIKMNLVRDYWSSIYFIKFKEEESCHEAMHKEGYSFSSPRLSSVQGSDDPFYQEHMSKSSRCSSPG

[8] = target: T5, RGS-ΔCt (AtRGS1 amino acids 284–416) (Arabidopsis thaliana) (UniProt Q8H1F2); assay: two-hybrid
T5 sequence: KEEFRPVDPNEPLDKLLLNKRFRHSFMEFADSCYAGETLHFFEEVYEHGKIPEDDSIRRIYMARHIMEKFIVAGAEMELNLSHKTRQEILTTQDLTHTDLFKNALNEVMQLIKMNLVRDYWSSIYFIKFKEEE

[9] = target: T6, AtVPS26B (split firefly-luciferase fusions AtVPS26B-nLUC and cLUC-AtVPS26B) (Arabidopsis), Q9T091; assay: split reporter; details: remark: other sources report otherwise
T6 chain: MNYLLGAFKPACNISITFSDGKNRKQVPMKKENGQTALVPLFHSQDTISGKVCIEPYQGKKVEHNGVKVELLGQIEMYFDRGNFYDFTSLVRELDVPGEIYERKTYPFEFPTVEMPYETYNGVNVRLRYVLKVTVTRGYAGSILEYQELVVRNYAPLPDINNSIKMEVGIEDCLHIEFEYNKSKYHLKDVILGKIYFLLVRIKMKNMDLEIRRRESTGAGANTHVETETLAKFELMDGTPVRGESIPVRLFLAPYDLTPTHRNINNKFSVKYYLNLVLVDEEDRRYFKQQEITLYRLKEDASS

[10] = target: T7, AGB1/AGG1 (AtAGB1-nLUC co-expressed with mCherry-AtAGG1) (Arabidopsis) (UniProt P49177+Q9FDX9); assay: split reporter
T7 sequence 1: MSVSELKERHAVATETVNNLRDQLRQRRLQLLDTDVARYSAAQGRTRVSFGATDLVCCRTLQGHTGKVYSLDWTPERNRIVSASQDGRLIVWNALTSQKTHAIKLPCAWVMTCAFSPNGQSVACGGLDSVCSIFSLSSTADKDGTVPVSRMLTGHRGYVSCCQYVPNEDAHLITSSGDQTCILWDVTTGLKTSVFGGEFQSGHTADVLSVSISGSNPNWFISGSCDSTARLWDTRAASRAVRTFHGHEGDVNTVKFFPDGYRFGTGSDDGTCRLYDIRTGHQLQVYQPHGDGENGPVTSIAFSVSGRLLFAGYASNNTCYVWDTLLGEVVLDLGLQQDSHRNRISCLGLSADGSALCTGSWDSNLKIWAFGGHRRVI
T7 sequence 2: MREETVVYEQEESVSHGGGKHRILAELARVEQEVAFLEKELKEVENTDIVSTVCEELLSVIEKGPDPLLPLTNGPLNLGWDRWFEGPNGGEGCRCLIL

binding [5]: binds
Molecule: VPS26B, BiFC fusion (VPS26B-cYFP) (from UniProt Q9T091 1-303)

binding [6]: no binding | binding [7]: binds | binding [8]: binds
Molecule: pACTGW–AtVPS26B (from UniProt Q9T091 1-303)

Further lines, the molecule ahead of its results:

Molecule: AtVPS26A (split firefly-luciferase fusions AtVPS26A-nLUC and cLUC-AtVPS26A) (from UniProt Q9FJD0 1-302)
binding [1]: binds | binding [2]: binds | binding [3]: no binding

Molecule: VPS26A, BiFC fusion (cYFP-VPS26A) (from UniProt Q9FJD0 1-302)
binding [4]: binds | binding [5]: binds

B1: AtVPS26B (split firefly-luciferase fusions AtVPS26B-nLUC and cLUC-AtVPS26B), Q9T091 1-303 (protein)
chain: MNYLLGAFKPACNISITFSDGKNRKQVPMKKENGQTALVPLFHSQDTISGKVCIEPYQGKKVEHNGVKVELLGQIEMYFDRGNFYDFTSLVRELDVPGEIYERKTYPFEFPTVEMPYETYNGVNVRLRYVLKVTVTRGYAGSILEYQELVVRNYAPLPDINNSIKMEVGIEDCLHIEFEYNKSKYHLKDVILGKIYFLLVRIKMKNMDLEIRRRESTGAGANTHVETETLAKFELMDGTPVRGESIPVRLFLAPYDLTPTHRNINNKFSVKYYLNLVLVDEEDRRYFKQQEITLYRLKEDASS
binding [9]: binds

B2: cLUC-AtGPA1 (protein, UniProt P18064 1-383)
chain: MGLLCSRSRHHTEDTDENTQAAEIERRIEQEAKAEKHIRKLLLLGAGESGKSTIFKQIKLLFQTGFDEGELKSYVPVIHANVYQTIKLLHDGTKEFAQNETDSAKYMLSSESIAIGEKLSEIGGRLDYPRLTKDIAEGIETLWKDPAIQETCARGNELQVPDCTKYLMENLKRLSDINYIPTKEDVLYARVRTTGVVEIQFSPVGENKKSGEVYRLFDVGGQRNERRKWIHLFEGVTAVIFCAAISEYDQTLFEDEQKNRMMETKELFDWVLKQPCFEKTSFMLFLNKFDIFEKKVLDVPLNVCEWFRDYQPVSSGKQEIEHAYEFVKKKFEELYYQNTAPDRVDRVFKIYRTTALDQKLVKKTFKLVDETLRRRNLLEAGLL
binding [10]: binds

Source: paper doi:10.1101/666578
